The target in the test is Biotinylated human IL13Rα2 (hIL13Rα2-avi) (human) (UniProt Q14627). Description: SPR, hIL13Rα2-avi pre-incubated with IL-13. (Surface plasmon resonance follows binding to a sensor surface in real time, without labels.)

Sequences of proteins named here, by UniProt entry; tags and fusion partners are left off. A change or cut given only in a name is not applied to a line headed by its entry. Residues count along the entry.
UniProt Q14627: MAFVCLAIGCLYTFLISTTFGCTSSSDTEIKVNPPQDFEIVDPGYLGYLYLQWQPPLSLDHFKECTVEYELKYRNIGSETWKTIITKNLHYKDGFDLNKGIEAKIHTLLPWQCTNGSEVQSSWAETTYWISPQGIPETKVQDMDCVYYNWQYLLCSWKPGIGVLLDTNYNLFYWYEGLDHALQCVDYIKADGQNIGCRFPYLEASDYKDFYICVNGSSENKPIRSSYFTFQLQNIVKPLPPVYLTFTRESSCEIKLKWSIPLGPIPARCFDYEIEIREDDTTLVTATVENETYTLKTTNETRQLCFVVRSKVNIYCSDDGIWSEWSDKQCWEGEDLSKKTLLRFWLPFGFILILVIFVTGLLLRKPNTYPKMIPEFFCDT
UniProt P35225, residues 35-146: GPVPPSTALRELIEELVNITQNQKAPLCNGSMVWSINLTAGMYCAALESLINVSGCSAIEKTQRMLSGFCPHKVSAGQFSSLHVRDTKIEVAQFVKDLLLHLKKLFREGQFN

Results are given in words; binding and its absence hold for the method and conditions named. Some binding calls cover weakened binding; strength is not graded here.

For the substance “human IL-13 (Prospec #cyt-446) (from UniProt P35225 35-146) (ligand)”, the binding entry is given as “binds”.

The record behind these values is patent publication US20230183364A1.
